Source: patent US5534409, “Cytokine regulated transcription factor” (Ciba-Geigy Corporation)
For at least one entry, the source does not settle the construct or the ends of the probe. Where cells or extracts were used, other partners may take part. Where a protein sequence is shown, tags need not be part of it.

Biological target: T1, MGF (recombinant, clone 10) from COS cells (Ovis aries) (UniProt P42231)
T1 sequence (limits assumed): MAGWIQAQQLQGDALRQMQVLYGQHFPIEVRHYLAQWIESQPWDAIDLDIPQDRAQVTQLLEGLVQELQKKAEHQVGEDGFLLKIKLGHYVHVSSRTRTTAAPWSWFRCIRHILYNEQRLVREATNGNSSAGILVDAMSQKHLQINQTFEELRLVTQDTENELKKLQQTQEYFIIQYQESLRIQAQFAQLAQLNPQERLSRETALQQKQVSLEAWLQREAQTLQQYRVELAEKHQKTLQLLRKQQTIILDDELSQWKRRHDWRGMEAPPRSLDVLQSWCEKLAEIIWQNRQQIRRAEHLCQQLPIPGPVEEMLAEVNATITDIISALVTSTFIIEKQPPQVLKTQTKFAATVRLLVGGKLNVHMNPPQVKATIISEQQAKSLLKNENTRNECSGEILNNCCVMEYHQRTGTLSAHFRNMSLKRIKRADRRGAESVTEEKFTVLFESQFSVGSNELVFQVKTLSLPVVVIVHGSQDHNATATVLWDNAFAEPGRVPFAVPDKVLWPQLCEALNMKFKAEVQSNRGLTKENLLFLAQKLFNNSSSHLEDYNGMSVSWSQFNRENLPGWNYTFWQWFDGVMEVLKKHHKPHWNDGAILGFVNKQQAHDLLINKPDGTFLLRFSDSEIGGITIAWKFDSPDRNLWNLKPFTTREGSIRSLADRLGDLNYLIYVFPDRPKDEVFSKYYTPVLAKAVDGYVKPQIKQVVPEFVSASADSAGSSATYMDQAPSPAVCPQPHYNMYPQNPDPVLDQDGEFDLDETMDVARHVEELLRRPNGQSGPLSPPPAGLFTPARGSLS
Test: EMSA
Conditions: strong with long prolactin receptor plus prolactin, low without; competed by 100-fold molar excess of wild-type oligo; PTP1B prevents complex; protein in an extract

AGATTTCTAGGAATTCAATCC (double strand) [bovine beta-casein MGF site]
binding result: binds
